Assay results taken from ChEMBL document CHEMBL4316593 (Eur J Med Chem, 2019).
The source gives many values for each of these; only a part stands here.

Assays:
Type in all cases: cell-based
Settings in all cases: U-87MG ATCC
[1] = Inhibition of RTK/PI3K/AKT/mTOR signaling in human U87 cells assessed as up regulation of SEMA3A gene expression at cytotoxic IC50 measured after 48 hrs relative to control
[2] = Inhibition of RTK/PI3K/AKT/mTOR signaling in human U87 cells assessed as down regulation of ATF3 gene expression at cytotoxic IC50 measured after 48 hrs relative to control
[3] = Inhibition of RTK/PI3K/AKT/mTOR signaling in human U87 cells assessed as down regulation of VAMP7 gene expression at cytotoxic IC50 measured after 48 hrs relative to control
[4] = Inhibition of RTK/PI3K/AKT/mTOR signaling in human U87 cells assessed as down regulation of NET1 gene expression at cytotoxic IC50 measured after 48 hrs relative to control
[5] = Inhibition of RTK/PI3K/AKT/mTOR signaling in human U87 cells assessed as up regulation of THSD4 gene expression at cytotoxic IC50 measured after 48 hrs relative to control
[6] = Inhibition of RTK/PI3K/AKT/mTOR signaling in human U87 cells assessed as up regulation of potassium two pore domain channel subfamily K member 6 gene expression at cytotoxic IC50 measured after 48 hrs relative to control
[7] = Inhibition of RTK/PI3K/AKT/mTOR signaling in human U87 cells assessed as down regulation of MYLIP gene expression at cytotoxic IC50 measured after 48 hrs relative to control
[8] = Inhibition of RTK/PI3K/AKT/mTOR signaling in human U87 cells assessed as down regulation of MRPL13 gene expression at cytotoxic IC50 measured after 48 hrs relative to control
[9] = Inhibition of RTK/PI3K/AKT/mTOR signaling in human U87 cells assessed as up regulation of HK2 gene expression at cytotoxic IC50 measured after 48 hrs relative to control
[10] = Inhibition of RTK/PI3K/AKT/mTOR signaling in human U87 cells assessed as up regulation of dihydropyrimidinase like 2 gene expression at cytotoxic IC50 measured after 48 hrs relative to control
[11] = Inhibition of RTK/PI3K/AKT/mTOR signaling in human U87 cells assessed as down regulation of CCSER2 gene expression at cytotoxic IC50 measured after 48 hrs relative to control
[12] = Inhibition of RTK/PI3K/AKT/mTOR signaling in human U87 cells assessed as up regulation of peptidase M20 domain containing 2 gene expression at cytotoxic IC50 measured after 48 hrs relative to control
[13] = Inhibition of RTK/PI3K/AKT/mTOR signaling in human U87 cells assessed as up regulation of TCF3 gene expression at cytotoxic IC50 measured after 48 hrs relative to control
[14] = Inhibition of RTK/PI3K/AKT/mTOR signaling in human U87 cells assessed as up regulation of zinc finger protein 37A gene expression at cytotoxic IC50 measured after 48 hrs relative to control
[15] = Inhibition of RTK/PI3K/AKT/mTOR signaling in human U87 cells assessed as up regulation of protein tyrosine kinase 7 (inactive) gene expression at cytotoxic IC50 measured after 48 hrs relative to control
[16] = Inhibition of RTK/PI3K/AKT/mTOR signaling in human U87 cells assessed as down regulation of CXorf57 gene expression at cytotoxic IC50 measured after 48 hrs relative to control
[17] = Inhibition of RTK/PI3K/AKT/mTOR signaling in human U87 cells assessed as up regulation of PMS1 homolog 1, mismatch repair system component gene expression at cytotoxic IC50 measured after 48 hrs relative to control
[18] = Inhibition of RTK/PI3K/AKT/mTOR signaling in human U87 cells assessed as up regulation of IZUMO4 gene expression at cytotoxic IC50 measured after 48 hrs relative to control
[19] = Inhibition of RTK/PI3K/AKT/mTOR signaling in human U87 cells assessed as up regulation of melanoma associated antigen (mutated) 1 gene expression at cytotoxic IC50 measured after 48 hrs relative to control
[20] = Inhibition of RTK/PI3K/AKT/mTOR signaling in human U87 cells assessed as down regulation of CRYAB gene expression at cytotoxic IC50 measured after 48 hrs relative to control
[21] = Inhibition of RTK/PI3K/AKT/mTOR signaling in human U87 cells assessed as down regulation of CCDC93 gene expression at cytotoxic IC50 measured after 48 hrs relative to control
[22] = Inhibition of RTK/PI3K/AKT/mTOR signaling in human U87 cells assessed as down regulation of FOXM1 gene expression at cytotoxic IC50 measured after 48 hrs relative to control
[23] = Inhibition of RTK/PI3K/AKT/mTOR signaling in human U87 cells assessed as up regulation of zinc finger and BTB domain containing 7B gene expression at cytotoxic IC50 measured after 48 hrs relative to control
[24] = Inhibition of RTK/PI3K/AKT/mTOR signaling in human U87 cells assessed as down regulation of NBR1 gene expression at cytotoxic IC50 measured after 48 hrs relative to control
[25] = Inhibition of RTK/PI3K/AKT/mTOR signaling in human U87 cells assessed as up regulation of Kruppel like factor 4 gene expression at cytotoxic IC50 measured after 48 hrs relative to control
[26] = Inhibition of RTK/PI3K/AKT/mTOR signaling in human U87 cells assessed as down regulation of PSMF1 gene expression at cytotoxic IC50 measured after 48 hrs relative to control
[27] = Inhibition of RTK/PI3K/AKT/mTOR signaling in human U87 cells assessed as up regulation of neuronal calcium sensor 1 gene expression at cytotoxic IC50 measured after 48 hrs relative to control
[28] = Inhibition of RTK/PI3K/AKT/mTOR signaling in human U87 cells assessed as up regulation of NmrA like redox sensor 1 gene expression at cytotoxic IC50 measured after 48 hrs relative to control
[29] = Inhibition of RTK/PI3K/AKT/mTOR signaling in human U87 cells assessed as up regulation of STT3B, catalytic subunit of the oligosaccharyltransferase complex gene expression at cytotoxic IC50 measured after 48 hrs relative to control
[30] = Inhibition of RTK/PI3K/AKT/mTOR signaling in human U87 cells assessed as down regulation of GPATCH8 gene expression at cytotoxic IC50 measured after 48 hrs relative to control
[31] = Inhibition of RTK/PI3K/AKT/mTOR signaling in human U87 cells assessed as down regulation of NISCH gene expression at cytotoxic IC50 measured after 48 hrs relative to control
[32] = Inhibition of RTK/PI3K/AKT/mTOR signaling in human U87 cells assessed as down regulation of DOPEY2 gene expression at cytotoxic IC50 measured after 48 hrs relative to control

## CC(=O)C(=NNc1ccccc1C#N)C(C)=O
[1]
  log2FC: 2.04
[2]
  log2FC: -1.25
[3]
  log2FC: -0.725
[4]
  log2FC: -0.797
[5]
  log2FC: 1.85
[6]
  log2FC: 1.38
[7]
  log2FC: -1.59
[8]
  log2FC: -0.803
[9]
  log2FC: 2.3
[10]
  log2FC: 1.25
[11]
  log2FC: -0.609
[12]
  log2FC: 1.3
[13]
  log2FC: 0.578
[14]
  log2FC: 1.07
[15]
  log2FC: 0.852
[16]
  log2FC: -1.22
[17]
  log2FC: 0.835
[18]
  log2FC: 2.58
[19]
  log2FC: 0.744
[20]
  log2FC: -7.2
[21]
  log2FC: -1.04
[22]
  log2FC: -1.28
[23]
  log2FC: 0.92
[24]
  log2FC: -0.465
[25]
  log2FC: 1.45
[26]
  log2FC: -0.447
[27]
  log2FC: 0.689
[28]
  log2FC: 0.8
[29]
  log2FC: 1.03
[30]
  log2FC: -0.565
[31]
  log2FC: -0.462
[32]
  log2FC: -0.798
